Measured values published in patent US20220396792.

Tested on: VEGF165
Assay: SPR
Conditions: 25 C, purified recombinant protein, protein details: PeproTech 100-20, single-stranded DNA

Sequence | Kd (SB1T pH 7.5, 1 mM MgCl2, no Ca) | Kd (SB1T pH 7.4, 1 mM MgCl2, 0.01% Tween 20)
CCGTAAACAGTTCTGGTTCCTTAGTTTAAAGTCACGTCTTAGTTTAAGGAAAAAAAAAAAAAAAAAAAA [Aptamer 3 VEGF746CaP_5s49 with 3' poly(dA)20] | 107 pM | –
CCTTAGTTTAAAGTCACGTCTTAGTTTAAGGAAAAAAAAAAAAAAAAAAAA [Aptamer 2 VEGF746CaP_5s31 with 3' poly(dA)20] | – | 90.7 pM

Construct, isoform or probe ends are uncertain for at least one entry.
